# Reference: patent publication US12590121B2, “Peptide compound with repetitive sequences” (KING ABDULLAH UNIVERSITY OF SCIENCE AND TECHNOLOGY, priority 2020, dated 2026)
# Non-standard residues stand in square brackets, D forms with d. Residues, ends and D or L forms follow the SMILES beside them. Cha = N[C@@H](CC1CCCCC1)C(=O)O
# Legend:
# [1] = Printability and shape fidelity assessment (3D bioprinting); conditions: IZZK 200 layers, 6 mL peptide; IIZK 180 layers, 4 ml peptide
# [2] = Filament collapse test; conditions: 1, 2, 4, 8 and 16 mm gaps
SMILES,height of printed construct achieved [1] [mm],printed filament holding its shape over gaps [2]
"CC[C@H](C)[C@H](NC(C)=O)C(=O)N[C@@H](CC1CCCCC1)C(=O)N[C@@H](CC1CCCCC1)C(=O)N[C@@H](CCCCN)C(N)=O [IZZK, Ac-Ile-Cha-Cha-Lys-NH2] (Ac-I[Cha][Cha]K-NH2)",40,without or with only slight sagging
"CC[C@H](C)[C@H](NC(C)=O)C(=O)N[C@H](C(=O)N[C@@H](CC1CCCCC1)C(=O)N[C@@H](CCCCN)C(N)=O)[C@@H](C)CC [IIZK, Ac-Ile-Ile-Cha-Lys-NH2] (Ac-II[Cha]K-NH2)",38,without or with only slight sagging
